{"source": "patent US20080279936A1", "about": "“Estradiol metabolites for reduction of endothelin production” (The University of Pittsburgh, priority 2001, published 2008)", "tested_on": "endothelin-1 (ET-1) synthesis in porcine coronary artery endothelial cells (PCAECs)", "assay": "Stimulated (FCS, angiotensin II, thrombin, TNFα) ET-1 release into the medium by PCAECs (ELISA)", "format": "cell-based", "conditions": "10 nmol/L; FCS 2.5%, 4 hours", "excerpt": "Hearts from female pigs were obtained from a local slaughter house and placed in ice-cold oxygenated DMEM (Gibco, Rockville, Md. now Invitrogen, Carlsbad Calif., hereinafter “Gibco”) containing antibiotics (Gibco). The epicardial coronary arteries were isolated, and the fat and connective tissue were removed. Endothelial cells were isolated by collagenase/dispase digestion (Ohbayashi, A., et al., Biochem. Brophys. Res. Commun. 202:504 (1994), the disclosure of which is incorporated herein be reference (“Ohbayashi, et al.”)). […]\nTo study the effects of estradiol and its metabolites on ET-1 synthesis in porcine coronary artery endothelial cells (“PCAECs”) (Gibco), confluent monolayers of PCAECs were washed twice with HBSS (Gibco) and treated with DMEM/F12 (gibco) supplemented with 0.4% bovine serum albumin (BSA) containing or lacking 0.001 to 1 μmol/L of estradiol, 2-hydroxyestradiol, or 2-methoxyestradiol (Steraloids, Newport, R.I.). […] The supernatants were collected for ET-1 analysis, and the samples were frozen at −70° C. until analyzed. ET-1 levels were measured with the BIOTRAK™ (Amersham Pharmacia Biotech Europe Gmbh, Dubendorf, Switzerland) high-sensitivity endothelin-1 human ELISA system. […]", "note": "For at least one compound, name, drawing or mass did not settle the structure."}
{"smiles": "C[C@]12CC[C@@H]3c4ccc(O)cc4CC[C@H]3[C@@H]1CCC2=O", "note": "[estrone]", "values": [{"measurement": "effect on FCS-induced ET-1 synthesis", "value": "unable to lower ET-1 secretion"}]}
